PubChem BioAssay AID1053208 | Peter MacCallum Cancer Centre, 2014
Test: 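Synthetic lethal interactions between gene loss and doxorubicin in osteosarcoma cells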 (primary screen). Cells: mouse osteosarcoma cells, early-passage culture from an engineered mouse model of fibroblastic bone tumour. Reagents: siRNA pool against mouse genes, 40 nM. Duration: about 120 h (48 h before drug, then 72 h with drug). Treatment: doxorubicin 100 nM for 72 h, roughly 30-40% inhibitory dose. Measurement: 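Luminescent ATP signal taken as viability with or without 100 nM doxorubicin for 72 h; mean of two wells set against non-targeting siRNA and turned into robust z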. Direction: viability z-score with doxorubicin: higher = more viable cells under doxorubicin; viability z-score without drug: higher = more viable cells with knock-down alone. Call rule: 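Called active if knock-down leaves viability unchanged without drug (z within -2 to 2) but lowers it with doxorubicin (z at or under -2)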.
Here is an unselected part of about 17,000 deposited reagents. In the full data, 788 (4.7%) were called active. 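Calls rest on z-score classes alone; an extra cut-off of viability at most 70% of control was not applied to them.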 Entries without a mark were called inactive. Further read-outs or replicates are left out here.

| gene symbol | combined z-score class | viability z-score with doxorubicin | viability z-score without drug |
| --- | --- | --- | --- |
| Frmd4a (FERM domain containing 4A) | no change with or without drug | -0.34 | -0.51 |
| Commd5 (COMM domain containing 5) | no change with or without drug | -0.79 | 0.17 |
| Rpl27a (ribosomal protein L27A) | low cell count with and without drug | -7.19 | -5.9 |
| Il5ra (interleukin 5 receptor, alpha) | no change with or without drug | -0.11 | -0.84 |
| Slc71a2 | no change with or without drug | -0.22 | 0 |
| App (amyloid beta precursor protein) | no change with or without drug | -0.22 | -0.51 |
| Tm6sf2 (transmembrane 6 superfamily member 2) | no change with or without drug | 0 | 0.84 |
| Vsir (V-set immunoregulatory receptor) | no change with or without drug | 0 | -0.84 |
| Kcna3 | no change with or without drug | 0.22 | -0.17 |
| Shh (sonic hedgehog signaling molecule) | no change with or without drug | 0.79 | -0.51 |
| Ccdc120 (coiled-coil domain containing 120) | no change with or without drug | -1.01 | 0.67 |
| Rpp40 (ribonuclease P 40 subunit) | no change with or without drug | -1.12 | -0.34 |
| Kcne1 | no change with or without drug | 1.35 | 0.84 |
| Aff3 (AF4/FMR2 family, member 3) | no change with or without drug | -0.22 | -0.84 |
| Tnfsf14 (tumor necrosis factor (ligand) superfamily, member 14) | no change with or without drug | -0.45 | -0.51 |
| Yy1 (YY1 transcription factor) | low cell count with doxorubicin only (active) | -2.47 | -1.69 |
| U2af1 (U2 small nuclear ribonucleoprotein auxiliary factor (U2AF) 1) | low cell count with and without drug | -4.27 | -2.19 |
| Mterf4 (mitochondrial transcription termination factor 4) | no change with or without drug | -0.79 | 0.34 |
| Banf2 (BANF family member 2) | no change with or without drug | 0.45 | 0.84 |
| Sag (S-antigen, retina and pineal gland (arrestin)) | no change with or without drug | -0.9 | 0.17 |

Laid out differently: entries from further up
Slc71a2 | combined z-score class = no change with or without drug; viability z-score with doxorubicin = -0.22; viability z-score without drug = 0
App (amyloid beta precursor protein) | combined z-score class = no change with or without drug; viability z-score with doxorubicin = -0.22; viability z-score without drug = -0.51
Tm6sf2 (transmembrane 6 superfamily member 2) | combined z-score class = no change with or without drug; viability z-score with doxorubicin = 0; viability z-score without drug = 0.84
